Results as given in US5086054A, “Novel arylcycloalkanepolyalkylamines” (SRI International, priority 1990, dated 1992).

Tested on: PCP RECEPTOR
Assay: PCP receptor binding assay ([3H]-TCP displacement, brain membranes)
Design: species or system guinea-pig (male Hartley)
Conditions: Table 1; slope of dose response curve
Method: This example illustrates testing of compounds in receptor binding assays.
Frozen brains from male Hartley guinea-pigs were obtained from Pel-Freeze (Rogers, Arkansas).
The brains plus cerebella were homogenized in 10 volumes (v/w) of 0.1M, pH 7.4, ice-cold Tris-HCl buffer with a Brinkmann polytron at setting 4 for 20 seconds. The homogenates were centrifuged at 20,000×g for 20 minutes at 4° C. The pellets were suspended in 10 volumes of ice-cold water and, after sitting on ice for 10 minutes, were centrifuged 30 minutes at 20,000×g at 4° C. The resulting pellets were resuspended in the above Tris buffer in ratio 1:100 (w/v) for σ receptor assays or in 5 mM Tris-HCl having pH 7.4, for PCP receptor assays. The final suspension was homogenized with a dounce glass-glass tissue grinder Wheaton "200", at small clearance (B), with three strokes before use. Two milliter aliquots of the brain membrane preparation, containing 1.7 mg of protein, were incubated in quadruplicate for one hour at 23° C. with competing mixture of ligand and radioligand. For σ receptors, [^3 H]-d-SKF-10,047, 2 nM was used. For PCP receptors, [^3 H] TCP [^3 H]-1-[1-(2-thienyl)cyclohexyl]piperidine), 1 nM was used. The nonspecific bindings were defined by 0.1 mM d-SKF-10,047 and 0.1 mM phencyclidine respectively for σ and PCP receptors. After incubation, free ligand was separated from bound ligand by rapid filtration through Whatman GF/C filters. The filters had been soaked before use in isoamyl alcohol-saturated water to prevent nonspecific [^3 H]-d-SKF-10,047 binding to the filter. In the PCP receptor assay, the filter was soaked in 0.5% polyethylenimine to reduce the filter binding of [^3 H]-TCP. After filtration, the trapped tissue was washed three times with 4 ml aliquots of 0.1 M ice-cold Tris buffer at pH 7.4 for σ receptors and 5 mM, ice-cold Tris buffer pH 7.4 for PCP receptors. The filters were transferred to 5 ml of liquid scintillation fluid and the retained radioactivity was measured by liquid scintillation spectrometry.
Programs in Biomed. 17:107 (1983)].

In order of falling “PCP RECEPTOR SLOPE” value:
1. CCN(CC)C1(c2ccccc2)CCCCC1 [Compound 13, N,N-diethyl-1-phenylcyclohexylamine, reference compound]  0.96 ± 0.01
2. c1ccc(C2(N3CCOCC3)CCCCC2)cc1 [Compound 10, 4-(1-phenylcyclohexyl)morpholine, reference compound]  0.93 ± 0.03
3. c1ccc(C2(CN3CCCC3)CCCCC2)cc1 [Compound 6]  0.85 ± 0.04
4. c1ccc(C2(CN3CCCCC3)CCCCC2)cc1 [Compound 2]  0.84 ± 0.02
5. c1ccc(C2(N3CCCC3)CCCCC2)cc1 [Compound 5, 1-(1-phenylcyclohexyl)pyrrolidine, reference compound]  0.84 ± 0.04
6. CN(C)C1(c2ccccc2)CCCCC1 [Compound 17, N,N-dimethyl-1-phenylcyclohexylamine, reference compound]  0.81 ± 0.01
7. c1ccc(C2(N3CCCCC3)CCCCC2)cc1 [Compound 1, 1-(1-phenylcylohexyl)piperidine, reference compound]  0.78 ± 0.02
8. c1ccc(C2(CCN3CCCC3)CCCCC2)cc1 [Compound 7]  0.71 ± 0.08

Same assay, conditions: Table 2

In order of falling “PCP RECEPTOR SLOPE” value:
1. Clc1cccc(C2(CN3CCCC3)CCCCC2)c1 [Compound 32]  1.78 ± 0.09
2. COc1cccc(C2(CN3CCCC3)CCCCC2)c1 [Compound 33]  0.89 ± 0.08
3. c1ccc(C2(CN3CCCC3)CCCCC2)cc1 [Compound 6]  0.85 ± 0.04
4. c1ccc(C2(CN3CCCCC3)CCCCC2)cc1 [Compound 2]  0.84 ± 0.02
5. Clc1cccc(C2(CN3CCCCC3)CCCCC2)c1 [Compound 25]  0.84 ± 0.05
6. Oc1cccc(C2(CN3CCCC3)CCCCC2)c1 [Compound 29]  0.79 ± 0.02

Same assay, conditions: Table 3

In order of rising “PCP RECEPTOR SLOPE” value:
1. c1ccc(C2(CN3CCCCC3)CC2)cc1 [Compound 45]  0.83 ± 0.03
2. c1ccc(C2(CN3CCCCC3)CCCCC2)cc1 [Compound 2]  0.84 ± 0.02
